Measurements reported in PubChem BioAssay AID652272 (Drosophila RNAi Screening Center, 2013)
The screen tested about 21,000 reagents; shown is a random part of those with a known target gene and a result. Over the whole deposit, 503 (2.4%) are marked active. 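Raw plate light values, not normalised; calls rest on replicate z-scores that were not deposited; hits include reporter decreases as well as increases.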 Names joined by + are all predicted targets of the reagent. Not stated in the record: the amount of reagent, the time to read-out.

Test: 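Genes whose knock-down decreases or increases Hedgehog reporter output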 (primary screen)
Cells: Drosophila clone 8 (Cl8) cells
Knock-down reagent: long dsRNA against Drosophila genes
Read-out: 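Plate reader light from a firefly reporter under a ptc promoter fragment that responds to Hedgehog, with Renilla light as transfection reference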
Direction: firefly Hh reporter signal: higher = more ptc reporter light; Renilla reference signal: higher = more Renilla control light
Call rule: 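Called a hit if the two-replicate mean z-score lies below -2 or above +3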
Calls: active = hit: reporter lowered or raised; inactive = not a hit

gene knocked down	amplicon	firefly Hh reporter signal, replicate 1	firefly Hh reporter signal, replicate 2	Renilla reference signal, replicate 1	Renilla reference signal, replicate 2	outcome
Sema1a (GeneID 34192)	DRSC03433	93253	54177	2581	4166	inactive
CG43397 + CG12902	DRSC06217	87488	66101	1960	5664	inactive
fest (GeneID 37220)	DRSC07349	45059	45472	1324	3753	inactive
Nap1 (GeneID 37798)	DRSC04626	89513	1.25e5	4327	4699	inactive
AANATL4 (GeneID 37213)	DRSC06774	97584	60793	2764	4365	inactive
Cht8 (GeneID 37390)	DRSC04546	1.20e5	51635	3143	4486	inactive
Dhrs4 (GeneID 38598)	DRSC09773	1.13e5	87264	4218	3084	inactive
Myd88 (GeneID 35956)	DRSC06815	63172	48976	2865	2228	inactive
ND-B15 (GeneID 36640)	DRSC06199	98132	81525	1896	4966	inactive
CG43219 (GeneID 12798437)	DRSC11472	3.25e5		6516		inactive
Prim2 (GeneID 44915)	DRSC11610	1.14e5	65483	4165	2720	inactive
Vap33 (GeneID 31349)	DRSC18384	1.52e5	1.20e5	2996	3553	inactive

In a second layout: 2 of the entries above.
AANATL4 (GeneID 37213) [DRSC06774]
- firefly Hh reporter signal, replicate 1: 97584
- firefly Hh reporter signal, replicate 2: 60793
- Renilla reference signal, replicate 1: 2764
- Renilla reference signal, replicate 2: 4365
- outcome: inactive

Cht8 (GeneID 37390) [DRSC04546]
- firefly Hh reporter signal, replicate 1: 1.20e5
- firefly Hh reporter signal, replicate 2: 51635
- Renilla reference signal, replicate 1: 3143
- Renilla reference signal, replicate 2: 4486
- outcome: inactive

The results go on.
gene knocked down	amplicon	firefly Hh reporter signal, replicate 1	firefly Hh reporter signal, replicate 2	Renilla reference signal, replicate 1	Renilla reference signal, replicate 2	outcome
asRNA:CR43469 + Balat	DRSC06852	97526	55435	3931	2422	inactive
CG31404 (GeneID 318714)	DRSC15497	6.46e5	96513	35303	2496	inactive
TrpA1 (GeneID 39015)	DRSC10544	52603	44848	7120	3776	inactive
TwdlB (GeneID 43202)	DRSC16050	93209	1.09e5	1804	2282	inactive
Mco1 (GeneID 34258)	DRSC02720	1.27e5	75227	3756	7111	inactive
CR33013 (GeneID 14462581)	DRSC06286	70939	43271	1736	3304	inactive
CG13843 (GeneID 42668)	DRSC14693	5.32e5	1.00e5	28859	2788	inactive
mRpS26 (GeneID 40001)	DRSC10823	1.02e5		1426	13141	inactive
Nadk1b (GeneID 36507)	DRSC05432	1.32e5	3.31e5	3915	12161	inactive
Nadk1b (GeneID 36507)	DRSC06964	1.62e5	89050	6019	3686	inactive
Nadk1b (GeneID 36507)	DRSC06965	88528	49239	2128	4443	inactive
